Experimental data taken from patent publication US20080051319A1, “Inhibiting JNK Signaling Promotes CNS Axon Regeneration” (Children's Medical Center Corporation, priority 2006, published 2008).
At least one compound was matched to its structure with a doubt left.

Key:
[1] = tested on: 4 week-old rat DRGs; experiment: in vitro neurite outgrowth assay on immobilized AP-Nogo-66; assay type: cell-based
Description: JNK is a member of the mitogen-activated protein kinase (MAP kinase) family which is abundantly expressed in axons and growth cones, and has been implicated in numerous roles including cell stress and cell proliferation. […] Briefly, 4 week-old rat DRGs were dissected, dissociated and plated onto immobilized substrates (AP (100 ng/cm^2) or AP-Nogo-66 (100 ng/cm^2)). Cells were cultured for 24 h before fixation with 4% paraformaldehyde and staining with a neuronal-specific anti-β-tubulin III antibody (Tuj-1, Covance). The average lengths of the longest neurite in individual neurons were measured from at least 150 neurons per condition, from duplicate wells and from three independent experiments, and quantified as described previously. Immunohistochemistry was performed using antibodies against p75 (Chemicon).

[2] = tested on: Sprague Dawley rats, spinal injury; experiment: directed forepaw reaching (DFR) task after dorsal corticospinal tract transection; assay type: in vivo, rat; conditions: sixth week after surgery; intrathecal pump 500 ng/μl at 1 μl/hr for 7 days or 100 μg/kg tail vein daily; versus lesion and vehicle groups (about 40% success)
[3] = tested on: Sprague Dawley rats, spinal injury; experiment: count of BDT-labeled CST axons caudal to the spinal lesion; assay type: in vivo, rat; conditions: at each distance 1-19 mm caudal to lesion; compared to lesioned control rats
[4] = tested on: lesioned optic nerve fibers in adult mice; experiment: optic nerve crush model, GAP43 staining of regenerating axons and Tuj1 count of RGCs; assay type: in vivo, mouse
[5] = tested on: spinal nerve ligation; conditions: intrathecal 2.5 ug/ul (11 mM)×hr, cited from earlier work
[6] = tested on: explanted or dissociated ganglia sensory neurons; conditions: inhibition of c-Jun phosphorylation; cited from earlier work

Compound: Oc1c2ccccc2c2c3c(cccc13)N=N2 [SP600125]
- neutralization of outgrowth inhibition in p75-positive and p75-negative neurons ([1]; both p75+ and p75− neurons): neutralizes outgrowth inhibition
- effect on neurite outgrowth inhibition by Nogo-66 ([1]; rat DRG neurons on AP-Nogo-66 (100 ng/cm^2), 24 h culture): significantly reduces the inhibitory effects of Nogo-66
- DFR task performance (functional recovery after spinal injury) [2]: Significantly better performance
- number of BDT-labeled axons caudal to the lesion [3]: Significantly more labeled axons
- axonal regrowth ([4]; Gelfoam with 500 ng/ml at crush site, two weeks post injury, compared to DMSO control mice): significant increases
- RGC survival ([4]; Tuj1-stained retinal sections, surviving RGCs counted): No detectable effect
- number of regenerating axons ([4]; measured 0.25 mm beyond the injury site, Gelfoam with 500 ng/ml, two weeks post injury, compared to DMSO control mice): significant increases
- mechanical hypersensitivity ([5]; 3 and 7 d after spinal nerve ligation surgery): inhibited mechanical hypersensitivity
- thermal hyperalgesia ([5]; after spinal nerve ligation): did not affect thermal hyperalgesia
- axonal outgrowth [6]: dramatically reduced axonal outgrowth
